Experimental findings from patent US11065203B2, “Liposomal compositions and uses of same” (Technion Research & Development Foundation Limited, priority 2009, dated 2021) are described below.

The data set is described as follows: Proteomics analysis (trypsin digest, LC-MS/MS) of hMSC ghosts and derived CDLs, conditioned or unconditioned by PC3 medium. Set-up: species or system human. The note with it: LC-MS/MS peak area per protein; for Ratio of expression Cond. CDLs/Cond. Ghosts: CDLs derived from conditioned hMSCs versus conditioned ghosts; for Ratio of expression Cond Ghosts/Ghosts: hMSC ghosts conditioned by PC3 medium versus unconditioned ghosts.

B1: Q92841 (protein, UniProt Q92841 1-729, looked up)
chain: MPTGFVAPILCVLLPSPTREAATVASATGDSASERESAAPAAAPTAEAPPPSVVTRPEPQALPSPAIRAPLPDLYPFGTMRGGGFGDRDRDRDRGGFGARGGGGLPPKKFGNPGERLRKKKWDLSELPKFEKNFYVEHPEVARLTPYEVDELRRKKEITVRGGDVCPKPVFAFHHANFPQYVMDVLMDQHFTEPTPIQCQGFPLALSGRDMVGIAQTGSGKTLAYLLPAIVHINHQPYLERGDGPICLVLAPTRELAQQVQQVADDYGKCSRLKSTCIYGGAPKGPQIRDLERGVEICIATPGRLIDFLESGKTNLRRCTYLVLDEADRMLDMGFEPQIRKIVDQIRPDRQTLMWSATWPKEVRQLAEDFLRDYTQINVGNLELSANHNILQIVDVCMESEKDHKLIQLMEEIMAEKENKTIIFVETKRRCDDLTRRMRRDGWPAMCIHGDKSQPERDWVLNEFRSGKAPILIATDVASRGLDVEDVKFVINYDYPNSSEDYVHRIGRTARSTNKGTAYTFFTPGNLKQARELIKVLEEANQAINPKLMQLVDHRGGGGGGGGRSRYRTTSSANNPNLMYQDECDRRLRGVKDGGRRDSASYRDRSETDRAGYANGSGYGSPNSAFGAQAGQYTYGQGTYGAAAYGTSSYTAQEYGAGTYGASSTTSTGRSSQSSSQQFSGIGRSGQQPQPLMSQQFAQPPGATNMIGYMGQTAYQYPPPPPPPPPSRK
modifications: full-length
For the molecule B1, the “Ratio of expression Cond. CDLs/Cond. Ghosts” value was found to be 2% and the “Ratio of expression Cond Ghosts/Ghosts” value came out at 100%.

B2: Q9NYL4 (protein, UniProt Q9NYL4 1-201, looked up)
chain: MTLRPSLLPLHLLLLLLLSAAVCRAEAGLETESPVRTLQVETLVEPPEPCAEPAAFGDTLHIHYTGSLVDGRIIDTSLTRDPLVIELGQKQVIPGLEQSLLDMCVGEKRRAIIPSHLAYGKRGFPPSVPADAVVQYDVELIALIRANYWLKLVKGILPLVGMAMVPALLGLIGYHLYRKANRPKVSKKKLKEEKRNKSKKK
modifications: full-length
As for B2, the “Ratio of expression Cond. CDLs/Cond. Ghosts” value was found to be 2% and the “Ratio of expression Cond Ghosts/Ghosts” value stood at 100%.

B3: O14983 (protein, UniProt O14983 1-1001, looked up)
chain: MEAAHAKTTEECLAYFGVSETTGLTPDQVKRNLEKYGLNELPAEEGKTLWELVIEQFEDLLVRILLLAACISFVLAWFEEGEETITAFVEPFVILLILIANAIVGVWQERNAENAIEALKEYEPEMGKVYRADRKSVQRIKARDIVPGDIVEVAVGDKVPADIRILAIKSTTLRVDQSILTGESVSVIKHTEPVPDPRAVNQDKKNMLFSGTNIAAGKALGIVATTGVGTEIGKIRDQMAATEQDKTPLQQKLDEFGEQLSKVISLICVAVWLINIGHFNDPVHGGSWFRGAIYYFKIAVALAVAAIPEGLPAVITTCLALGTRRMAKKNAIVRSLPSVETLGCTSVICSDKTGTLTTNQMSVCKMFIIDKVDGDICLLNEFSITGSTYAPEGEVLKNDKPVRPGQYDGLVELATICALCNDSSLDFNEAKGVYEKVGEATETALTTLVEKMNVFNTDVRSLSKVERANACNSVIRQLMKKEFTLEFSRDRKSMSVYCSPAKSSRAAVGNKMFVKGAPEGVIDRCNYVRVGTTRVPLTGPVKEKIMAVIKEWGTGRDTLRCLALATRDTPPKREEMVLDDSARFLEYETDLTFVGVVGMLDPPRKEVTGSIQLCRDAGIRVIMITGDNKGTAIAICRRIGIFGENEEVADRAYTGREFDDLPLAEQREACRRACCFARVEPSHKSKIVEYLQSYDEITAMTGDGVNDAPALKKAEIGIAMGSGTAVAKTASEMVLADDNFSTIVAAVEEGRAIYNNMKQFIRYLISSNVGEVVCIFLTAALGLPEALIPVQLLWVNLVTDGLPATALGFNPPDLDIMDRPPRSPKEPLISGWLFFRYMAIGGYVGAATVGAAAWWFLYAEDGPHVNYSQLTHFMQCTEDNTHFEGIDCEVFEAPEPMTMALSVLVTIEMCNALNSLSENQSLLRMPPWVNIWLLGSICLSMSLHFLILYVDPLPMIFKLRALDLTQWLMVLKISLPVIGLDEILKFVARNYLEDPEDERRK
modifications: full-length
For B3, the “Ratio of expression Cond. CDLs/Cond. Ghosts” value turned out to be 2% and the “Ratio of expression Cond Ghosts/Ghosts” value was 100%.

B4: P20020 (protein, UniProt P20020 1-1220, looked up)
chain: MGDMANNSVAYSGVKNSLKEANHDGDFGITLAELRALMELRSTDALRKIQESYGDVYGICTKLKTSPNEGLSGNPADLERREAVFGKNFIPPKKPKTFLQLVWEALQDVTLIILEIAAIVSLGLSFYQPPEGDNALCGEVSVGEEEGEGETGWIEGAAILLSVVCVVLVTAFNDWSKEKQFRGLQSRIEQEQKFTVIRGGQVIQIPVADITVGDIAQVKYGDLLPADGILIQGNDLKIDESSLTGESDHVKKSLDKDPLLLSGTHVMEGSGRMVVTAVGVNSQTGIIFTLLGAGGEEEEKKDEKKKEKKNKKQDGAIENRNKAKAQDGAAMEMQPLKSEEGGDGDEKDKKKANLPKKEKSVLQGKLTKLAVQIGKAGLLMSAITVIILVLYFVIDTFWVQKRPWLAECTPIYIQYFVKFFIIGVTVLVVAVPEGLPLAVTISLAYSVKKMMKDNNLVRHLDACETMGNATAICSDKTGTLTMNRMTVVQAYINEKHYKKVPEPEAIPPNILSYLVTGISVNCAYTSKILPPEKEGGLPRHVGNKTECALLGLLLDLKRDYQDVRNEIPEEALYKVYTFNSVRKSMSTVLKNSDGSYRIFSKGASEIILKKCFKILSANGEAKVFRPRDRDDIVKTVIEPMASEGLRTICLAFRDFPAGEPEPEWDNENDIVTGLTCIAVVGIEDPVRPEVPDAIKKCQRAGITVRMVTGDNINTARAIATKCGILHPGEDFLCLEGKDFNRRIRNEKGEIEQERIDKIWPKLRVLARSSPTDKHTLVKGIIDSTVSDQRQVVAVTGDGTNDGPALKKADVGFAMGIAGTDVAKEASDIILTDDNFTSIVKAVMWGRNVYDSISKFLQFQLTVNVVAVIVAFTGACITQDSPLKAVQMLWVNLIMDTLASLALATEPPTESLLLRKPYGRNKPLISRTMMKNILGHAFYQLVVVFTLLFAGEKFFDIDSGRNAPLHAPPSEHYTIVFNTFVLMQLFNEINARKIHGERNVFEGIFNNAIFCTIVLGTFVVQIIIVQFGGKPFSCSELSIEQWLWSIFLGMGTLLWGQLISTIPTSRLKFLKEAGHGTQKEEIPEEELAEDVEEIDHAERELRRGQILWFRGLNRIQTQIRVVNAFRSSLYEGLEKPESRSSIHNFMTHPEFRIEDSEPHIPLIDDTDAEDDAPTKRNSSPPPSPNKNNNAVDSGIHLTIEMNKSATSSSPGSPLHSLETSL
modifications: full-length
As for B4, the “Ratio of expression Cond. CDLs/Cond. Ghosts” value turned out to be 2% and the “Ratio of expression Cond Ghosts/Ghosts” value is recorded as 100%.

B5: P61916 (protein, UniProt P61916 1-151, looked up)
chain: MRFLAATFLLLALSTAAQAEPVQFKDCGSVDGVIKEVNVSPCPTQPCQLSKGQSYSVNVTFTSNIQSKSSKAVVHGILMGVPVPFPIPEPDGCKSGINCPIQKDKTYSYLNKLPVKSEYPSIKLVVEWQLQDDKNQSLFCWEIPVQIVSHL
modifications: full-length
B5: the “Ratio of expression Cond. CDLs/Cond. Ghosts” value worked out at 2% and the “Ratio of expression Cond Ghosts/Ghosts” value was 195%.

B6: Q9Y224 (protein, UniProt Q9Y224 1-244, looked up)
chain: MFRRKLTALDYHNPAGFNCKDETEFRNFIVWLEDQKIRHYKIEDRGNLRNIHSSDWPKFFEKYLRDVNCPFKIQDRQEAIDWLLGLAVRLEYGDNAEKYKDLVPDNSKTADNATKNAEPLINLDVNNPDFKAGVMALANLLQIQRHDDYLVMLKAIRILVQERLTQDAVAKANQTKEGLPVALDKHILGFDTGDAVLNEAAQILRLLHIEELRELQTKINEAIVAVQAIIADPKTDHRLGKVGR
modifications: full-length
For the molecule B6, the “Ratio of expression Cond. CDLs/Cond. Ghosts” value was 2% and the “Ratio of expression Cond Ghosts/Ghosts” value amounted to 100%.
